Taken from: PubChem BioAssay AID1224826 (NIAID, 2016)
Shown is a random part of about 17,000 reagents. About 1,110 of all reagents (6.6%) were called active. 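Active means lowered or raised reporter signal; replicate intensities are raw and not normalised per plate.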 A number with no mark means an inactive call. Not all columns of the deposit are shown.

- Aim: 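Genes that change LPS-induced Tnf promoter activity in mouse macrophages when knocked down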 (primary screen)
- Cell system: RAW264.7 G9 macrophages from mouse bearing reporters for p65 (GFP) and the Tnf promoter (mCherry)
- Reagent: siRNA pool against mouse genes, 100 nM
- Time to read-out: 16 h of LPS stimulation, after 2 days of siRNA transfection
- Challenge: bacterial lipopolysaccharide (Salmonella minnesota R595), 10 ng/ml
- Measurement: 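Imaged Tnf reporter mCherry in nuclei, minus background, normalised per plate to the median and expressed as robust z-scores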
- Scale: Tnf reporter robust z-score: higher = stronger Tnf promoter reporter signal after LPS
- Call rule: 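Called active when robust z-score is at most -1.3, matching the median of the Tlr4 knock-down control, or over 3; control wells and wells with under 50 cells never active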
- Meaning of the calls: active = Tnf reporter clearly lowered or raised; inactive = no clear change in Tnf reporter

Target gene	PubChem SID	Tnf reporter robust z-score	fewer than 50 cells in well
Mt2 (GeneID 17750)	SID315468004	0.37	enough cells in well
Isl1 (GeneID 16392)	SID315467501	0.34	enough cells in well
Crebl2 (GeneID 232430)	SID315478989	-1.14	enough cells in well
Snrnp25 (GeneID 78372)	SID315475571	-0.39	enough cells in well
Gfra3 (GeneID 14587)	SID315466888	0.04	enough cells in well
Dgkg (GeneID 110197)	SID315476885	0.29	enough cells in well
Klhdc8a (GeneID 213417)	SID315477800	2.42	enough cells in well
Rdm1 (GeneID 66599)	SID315472532	0.66	enough cells in well

Look-ups from the entries so far.
For “fewer than 50 cells in well”, Dgkg (GeneID 110197) [SID315476885] reads enough cells in well
Entry for Isl1 (GeneID 16392) [SID315467501] under “fewer than 50 cells in well”: enough cells in well
Gfra3 (GeneID 14587) [SID315466888], Tnf reporter robust z-score: 0.04

The list goes on.
Target gene	PubChem SID	Tnf reporter robust z-score	fewer than 50 cells in well
Ninj2 (GeneID 29862)	SID315470719	1.85	enough cells in well
Syt11 (GeneID 229521)	SID315478711	1.3	enough cells in well
Tmem74b (GeneID 108832)	SID315476744	-1.07	enough cells in well
Zbtb40 (GeneID 230848)	SID315478835	0.14	enough cells in well
Ndst3 (GeneID 83398)	SID315475813	-0.58	enough cells in well
Trpm7 (GeneID 58800)	SID315471910	0.1	enough cells in well
Ptk2 (GeneID 14083)	SID315466617	1.72	enough cells in well
Rwdd2a (GeneID 69519)	SID315473816	2.5	enough cells in well
Tmco4 (GeneID 77056)	SID315475443		fewer than 50 cells per well; well left out of calls
Carm1 (GeneID 59035)	SID315471968	0.63	enough cells in well
Sag (GeneID 20215)	SID315469091	0.44	enough cells in well
Abcb1a (GeneID 18671)	SID315468491	-1.42 (active)	enough cells in well
Etv4 (GeneID 18612)	SID315468460	-0.17	enough cells in well
Mras (GeneID 17532)	SID315467978	-0.37	enough cells in well
Tgfb2 (GeneID 21808)	SID315469690	2.33	enough cells in well
Abca15 (GeneID 320631)	SID315481355	-0.6	enough cells in well
